Test results reported in PMC3432076.

Amino acid sequences for entries named in this document (tags omitted). A change or cut given only in a name is not applied to a line headed by its entry.
UniProt Q7RVQ8: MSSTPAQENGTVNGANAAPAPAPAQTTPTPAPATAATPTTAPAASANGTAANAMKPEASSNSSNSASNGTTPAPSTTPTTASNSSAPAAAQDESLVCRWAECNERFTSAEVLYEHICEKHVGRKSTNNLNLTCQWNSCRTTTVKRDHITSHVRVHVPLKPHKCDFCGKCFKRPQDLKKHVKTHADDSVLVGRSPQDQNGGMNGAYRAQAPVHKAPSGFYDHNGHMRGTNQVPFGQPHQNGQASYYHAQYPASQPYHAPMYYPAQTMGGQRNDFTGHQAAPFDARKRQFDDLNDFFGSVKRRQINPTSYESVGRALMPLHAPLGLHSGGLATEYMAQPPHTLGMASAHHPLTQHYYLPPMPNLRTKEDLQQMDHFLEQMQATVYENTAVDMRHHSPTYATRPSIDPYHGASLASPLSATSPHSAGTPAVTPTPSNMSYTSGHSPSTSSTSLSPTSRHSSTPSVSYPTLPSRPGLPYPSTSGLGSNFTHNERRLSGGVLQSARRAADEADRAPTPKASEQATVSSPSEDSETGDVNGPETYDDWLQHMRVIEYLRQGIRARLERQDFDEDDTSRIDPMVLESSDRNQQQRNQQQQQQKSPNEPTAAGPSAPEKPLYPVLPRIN

Experiments:
[1] = target: PACC, endogenous (heparin fraction, pH 5.8 mycelia) (Neurospora crassa wild type) (UniProt Q7RVQ8); assay: competition with a labelled probe; settings: pH 5.8 fraction, competes with pacC probe; EMSA: 25 mM HEPES-KOH pH 7.9, 20 mM KCl, 10% glycerol, 1 mM DTT, 0.2 mM EDTA, 0.5 mM PMSF, 12.5 mM benzamidine, 5 µg/mL antipain and pepstatin A, 2 µg poly(dI-dC); protein in an extract
[2] = target: PACC, endogenous (heparin fraction, pH 7.8 mycelia, 60 min) (Neurospora crassa wild type) (UniProt Q7RVQ8); assay: competition with a labelled probe; settings: pH 7.8 fraction, competes only at 20- and 30-fold molar excess; EMSA: 25 mM HEPES-KOH pH 7.9, 20 mM KCl, 10% glycerol, 1 mM DTT, 0.2 mM EDTA, 0.5 mM PMSF, 12.5 mM benzamidine, 5 µg/mL antipain and pepstatin A, 2 µg poly(dI-dC); protein in an extract

CTTTGGGCCAGCTTGGCCGTGAGATCG (double strand) [oligo pacC (27 bp)]
binding result [1]: binds | binding result [2]: binds

For at least one entry, the source does not settle the construct or the ends of the probe. Results from cells or extracts need not show a direct contact.
